Source: patent publication US20100297038A1, “Benzimidazole Derivatives And Their Use As Cooling Agents” (Givaudan S.A., priority 2008, published 2010)

Assay: Odor of the chemical (Table 1)
Parameters: species or system human

| SMILES | Odor |
| --- | --- |
| Cc1nc2ccccc2n1CCc1ccccc1 [Example 1, 2-methyl-1-phenethyl-1H-benzo[d]imidazole] | None |
| COc1ccc(CCn2c(C)nc3ccccc32)cc1 [Example 2, 1-(4-methoxyphenethyl)-2-methyl-1H-benzo[d]imidazole] | None |
| CC1CCC(C(C)C)C(O)C1 (stereo not shown) [I-Menthol, I-menthol] | Minty |
| CCNC(=O)C1CC(C)CCC1C(C)C (stereo not shown) [WS-3, N-ethyl p-menthanecarboxamide] | None |
